Results are given in words; binding and its absence hold for the method and conditions named. Some results given as binding are weak or reduced against the parent protein; the word gives no strength.

The target of test [1] is T1, human CCR6 (human) (UniProt P51684).
T1 sequence: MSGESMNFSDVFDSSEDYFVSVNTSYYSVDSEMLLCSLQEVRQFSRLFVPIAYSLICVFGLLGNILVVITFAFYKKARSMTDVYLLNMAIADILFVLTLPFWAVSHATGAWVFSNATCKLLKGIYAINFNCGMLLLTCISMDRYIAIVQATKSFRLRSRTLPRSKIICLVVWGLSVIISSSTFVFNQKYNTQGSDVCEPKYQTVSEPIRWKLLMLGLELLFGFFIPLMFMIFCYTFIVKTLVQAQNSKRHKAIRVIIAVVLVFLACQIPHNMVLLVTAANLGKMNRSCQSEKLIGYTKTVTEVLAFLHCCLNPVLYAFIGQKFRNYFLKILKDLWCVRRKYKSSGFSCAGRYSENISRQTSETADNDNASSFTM
Kind of test: flow cytometry on human PBMCs, 10 µg/mL. (A flow cytometer gives signals particle by particle.)

Test [2] addresses T1, human CCR6 (human). Kind of test: flow cytometry on human PBMCs, 10 µg/mL, anti-human IgG-PE.
Test [3] concerns the target T1, human CCR6 (human). The test can be described thus: cell ELISA on CHO cells transfected with human CCR6, anti-human Ig Fc-HRP. (In general: In an ELISA, binding on a coated surface is turned into a signal by an enzyme label.)
For test [4], the target named is T1, human CCR6 (human). The test can be described thus: flow cytometry on transfected cells (Human Nter, Human loops 1-3), 10 µg/ml, PE-labelled secondary antibody.
Test [5] concerns the target T1, human CCR6 (human). The test can be described thus: Cell ELISA on CHO cells expressing human CCR6.
The target in test [6] is T1, human CCR6 (human). Kind of test: flow cytometry on BAF cells transfected with human CCR6, 3 to 0.01 µg/ml.

B1: chimeric 4H11 antibody (antibody, human IgG1, kappa, V domains shown)
VH: EVKLVESGGGLVQPGGSLKLSCATSGFSFSDYYMYWIRQTPEKRLEWVAYITNGGITYYPDTVKGRFTISRDNAKNTLYLQMSRLRSEDTAMYYCTSPLRGAWFAYWGQGTLVTVSS
VL: DVIMTQSPLSLPVSLGDQASISCRSSQSIVHSNGNTYLEWYLQKPGQSPKLLIYKVSNRFSGVPDRFSGSGSGTDFTLKISRVEAEDLGLYYCFQGSHVPLTFGAGTKLEIKR
B1: the binding entry in test [1], in test [2], in test [3] and in test [4] was “binds” in each case.

B2: 4H11 VH5/VL1 IgG1 antibody (antibody, V domains shown)
VH: EVQLVESGGGLVQPGGSLRLSCAASGFSFSDYYMYWVRQAPGKGLEWVSYITNGGITYYPDSVKGRFTISRDNSKNTLYLQMNSLRAEDTAVYYCTSPLRGAWFAYWGQGTLVTVSS
VL: DVVMTQSPLSLPVTLGQPASISCRSSQSIVHSNGNTYLEWYQQRPGQSPRLLIYKVSNRFSGVPDRFSGSGSGTDFTLKISRVEAEDVGVYYCFQGSHVPLTFGQGTKLEIKR
For B2, the binding entry in test [5], in test [6] and in test [3] was “binds” throughout.

B3: VH1/VL1 antibody (antibody, human IgG1, kappa, V domains shown)
VH: EVQLVESGGGLVQPGGSLRLSCATSGFSFSDYYMYWVRQAPGKGLEWVAYITNGGITYYPDTVKGRFTISRDNSKNTLYLQMNSLRAEDTAVYYCTSPLRGAWFAYWGQGTLVTVSS
VL: DVVMTQSPLSLPVTLGQPASISCRSSQSIVHSNGNTYLEWYQQRPGQSPRLLIYKVSNRFSGVPDRFSGSGSGTDFTLKISRVEAEDVGVYYCFQGSHVPLTFGQGTKLEIKR
In the case of B3, the binding result in test [5] and in test [3] was “binds” each time.

B4: H2/L2 humanized anti human CCR6 antibody (antibody, human IgG1, kappa, V domains shown)
VH: EVQLVESGGGLVQPGGSLRLSCAASGFSFSDYYMYWVRQAPGKGLEWVAYITNGGITYYPDTVKGRFTISRDNSKNTLYLQMNSLRAEDTAVYYCTSPLRGAWFAYWGQGTLVTVSS
VL: DVVMTQSPLSLPVTLGQPASISCRSSQSIVHSNGNTYLEWFQQRPGQSPRLLIYKVSNRFSGVPDRFSGSGSGTDFTLKISRVEAEDVGVYYCFQGSHVPLTFGQGTKLEIKR
Turning to B4, the binding entry in test [3] is “binds”.

The values are drawn from patent US20180086836A1.
